From PubChem BioAssay AID602254 (Broad Institute, 2012)
Screen size: about 1,000 compounds; fewer than 10 were called active.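 How the source made its calls: active means fitted half-maximal concentration no higher than twice the top valid tested dose, with signal falling; inconclusive means flat curve with 30 to 70% inhibition, or poor fit; inactive means the rest.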 This is one part of the list. Entries with a potency or affinity are not part of this list. Residues, ends and D or L forms follow the SMILES beside them. *: point of attachment. Cbz = O=C(OCc1ccccc1)*

What follows are compounds tested against Golgi-associated PDZ and coiled-coil motif-containing protein (Homo sapiens) (UniProt Q9HD26) (assay: CAL PDZ domain peptide-binding inhibitors, dose response, biochemical, fluorescence polarization, untagged CAL PDZ, cherry-pick, set 2 (AID 602254;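 further: 0% = DMSO neutral control and -100% = unlabeled peptide PRC23 positive control; more negative means stronger blocking of peptide binding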)). Settings: Purified CAL PDZ, TMR peptide fluorescence polarization; at 60 µM (top of the series).
`O=C(NNC(=O)c1cccc(C(F)(F)F)c1)c1ccc(-n2cnnn2)cc1` was tested, and the activity change, negative = inhibition was inactive: 1.55%. `CCC/C=N/NC(=O)c1cccc(Br)c1` was tested, and the activity change, negative = inhibition was inactive: -10.6%. In the case of `Cc1cccc(C)c1NC(=O)Cn1nnnc1N`, the activity change, negative = inhibition is reported as inactive: -0.59%. In the case of `CCCNC(=O)C1CCC(CNS(=O)(=O)c2ccc3c(c2)CC(C)N3C(C)=O)CC1` (stereo not drawn), the activity change, negative = inhibition is reported as inactive: 0.309%. With `Cc1ccc(NC(=O)CCn2c(=O)oc3ccccc32)c(C)c1` the activity change, negative = inhibition was inactive: -0.153%. With `CCCCNC(=O)CN1C(=O)c2cccc(N)c2C1=O` the activity change, negative = inhibition was inactive: 0.983%. With `COC(=O)C1CCN(C(=O)C2CCC(=O)N(CCCc3ccccc3)C2)CC1` (stereo not drawn) the activity change, negative = inhibition was inactive: -2.7%. `Cc1ccccc1C(=O)OC(C)CN1CCN(C)CC1` (stereo not drawn) was tested, and the activity change, negative = inhibition was inactive: -8.78%. For `COc1ccc(OC)c(S(=O)(=O)Nc2c(C)n(C)n(-c3ccccc3)c2=O)c1`, the activity change, negative = inhibition was inactive: 2.4%. For `CC(=O)N1CCc2cc(S(=O)(=O)NCC(=O)NCc3ccccc3Cl)ccc21`, the activity change, negative = inhibition was inactive: -2.99%. For `C/C(CC(=O)Nc1ccc2c(c1)OCCO2)=N\NC(=O)COc1ccc(Cl)c(C)c1`, the activity change, negative = inhibition was inactive: 1.27%. With `CCN(CC)C(=O)COc1ccc(N(C)S(=O)(=O)c2ccc(NC(C)=O)cc2)cc1` the activity change, negative = inhibition was inactive: 0.142%. In the case of `Cc1ccnc(NC(=O)c2sc3cc(Cl)ccc3c2Cl)c1`, the activity change, negative = inhibition is reported as inactive: -5.33%. In the case of `CCOC(=O)CN1C(=O)c2ccccc2C1=O`, the activity change, negative = inhibition is reported as inactive: 1.53%. With `Cc1ccccc1N1CCN(C(=O)C2CCC(=O)N(C3CCCC3)C2)CC1` (stereo not drawn) the activity change, negative = inhibition was inactive: -1.33%. In the case of `Cc1cc(F)c(F)cc1C(=O)N1CCCC1`, the activity change, negative = inhibition is reported as inactive: 0.296%. In the case of `Cc1ccc(OCC(=O)Nc2c(C)ccc3nsnc23)cc1`, the activity change, negative = inhibition is reported as inactive: -4.34%. In the case of `CCc1cc(-c2n[nH]c(=S)n2CC(C)C)cs1`, the activity change, negative = inhibition is reported as inactive: -4.49%. `CCn1cc(C(=O)NC2CCCCCC2)c2cc(OC)c(OC)cc2c1=O` was tested, and the activity change, negative = inhibition was inactive: 7.5%. With `Cc1noc(C)c1C(=O)OCC(=O)NCCc1ccccc1` the activity change, negative = inhibition was inactive: -10.1%. In the case of `Cc1cc(S(=O)(=O)NCCc2ccccc2)ccc1-n1cnnn1`, the activity change, negative = inhibition is reported as inactive: 0.393%. With `CC(=O)c1ccc(NC(=S)N(CCCN(C)C)Cc2ccccc2)cc1` the activity change, negative = inhibition was inactive: -1.75%. For `Cc1ccc(-n2ncc(Cl)c2C(=O)NC2CC2)cc1`, the activity change, negative = inhibition was inactive: 3.86%. For `Cc1ccc(NC(=O)CN2C(=O)S/C(=C\c3ccccn3)C2=O)cc1`, the activity change, negative = inhibition was inactive: 2.99%. For `O=C(Nc1ccnn1C1CCN(C2CCC2)CC1)c1ccccc1`, the activity change, negative = inhibition was inactive: -3.97%. `COc1ccc(NC(=O)CC(CC(=O)O)c2cc(OC)c(OC)c(OC)c2)cc1` (stereo not drawn) was tested, and the activity change, negative = inhibition was inactive: 1.78%. `COc1ccc(S(=O)(=O)N2CCCCCC2)cc1C(=O)OC(C)C(N)=O` (stereo not drawn) was tested, and the activity change, negative = inhibition was inactive: 0.34%. With `C=CCNC(=S)N/N=C/c1ccc(OCc2ccccc2)cc1` the activity change, negative = inhibition was inactive: -0.594%. `CC(C)C1C(C#N)=C(N)Oc2n[nH]c(-c3cccs3)c21` (stereo not drawn) was tested, and the activity change, negative = inhibition was inactive: 15.6%. `COC(=O)c1sc(-c2ccc(Cl)cc2)cc1NC(=O)COCC(=O)O` was tested, and the activity change, negative = inhibition was inactive: 9.78%. With `Cc1cc(Cl)cc(C)c1OCC(=O)NC1CCCCCC1` the activity change, negative = inhibition was inactive: 10.5%. `CC(C)CN1C(=O)c2ccc(NC(=O)Cc3ccccc3)cc2C1=O` was tested, and the activity change, negative = inhibition was inactive: -2.46%. For `O=C(Nc1ccccc1)c1ccc2snnc2c1`, the activity change, negative = inhibition was inactive: 0.794%. For `CC(C)[C@H](NC(=O)OC(C)(C)C)C(=O)N/N=C/c1ccc2nccnc2c1`, the activity change, negative = inhibition was inactive: -0.4%. `CCC/C(=N\NC(=O)CNC(=O)c1ccc(Cl)cc1)c1ccccc1` was tested, and the activity change, negative = inhibition was inactive: -1.07%. `CC(C)(C)C(=O)O/N=C(\N)Cc1ccc(-c2csnn2)cc1` was tested, and the activity change, negative = inhibition was inactive: -1.04%. `COc1cccc(CN(C)C(=O)CN2C(=O)NC(c3ccccc3)(c3ccccc3)C2=O)c1` was tested, and the activity change, negative = inhibition was inactive: 0.401%. In the case of `CCSc1nnc(NC(=O)CCNC(=O)c2ccccc2Cl)s1`, the activity change, negative = inhibition is reported as inactive: -1.72%. For `Cc1ccc(NC(=O)COc2ccccc2C(=O)NCCc2ccccc2)cc1`, the activity change, negative = inhibition was inactive: 1.91%. In the case of `O=C(CC(c1ccccc1)c1ccccc1)Nc1ccncc1`, the activity change, negative = inhibition is reported as inactive: 4.51%. In the case of `CSc1cc(CS(=O)(=O)c2ccccc2)nc(-c2ccccc2)n1`, the activity change, negative = inhibition is reported as inactive: -0.628%. With `CCN(CC)CCCNC(=O)c1cn(CC(C)C)c(=O)c2c1c1ccccc1n2C` the activity change, negative = inhibition was inactive: 0.819%. `O=C(COc1ccc(F)cc1Br)N1CCN(S(=O)(=O)/C=C/c2ccccc2)CC1` was tested, and the activity change, negative = inhibition was inactive: -0.593%. In the case of `Cc1nc(C)c(CC(=O)N/N=C/c2ccc(O)cc2)c(=O)[nH]1`, the activity change, negative = inhibition is reported as inactive: -1.37%. For `COc1ccc2[nH]c(O)c(N=NC(=O)c3ccc(NS(=O)(=O)c4cccs4)cc3)c2c1`, the activity change, negative = inhibition was inactive: 0.434%. `COc1ccc(CC(=O)Nc2ccc(S(=O)(=O)Nc3cc(C)on3)cc2)cc1` was tested, and the activity change, negative = inhibition was inactive: 2.22%. For `COc1cccc(/C=N/Nc2ccccc2C(=O)O)c1O`, the activity change, negative = inhibition was inactive: -3.32%. `COc1ccccc1NC(=O)C1CCN(C(=O)NCc2ccccc2)CC1` was tested, and the activity change, negative = inhibition was inactive: 0.179%. With `COc1ccccc1C(=O)NNC(=O)c1ccc(NC(=O)C(C)C)cc1` the activity change, negative = inhibition was inactive: -0.743%. `OC(c1ccccc1)C(NCCNCc1ccccc1)c1ccccc1` (stereo not drawn) was tested, and the activity change, negative = inhibition was inactive: -1.33%. In the case of `COc1ccc(CCNS(=O)(=O)c2ccc(-n3cnnn3)cc2)cc1OC`, the activity change, negative = inhibition is reported as inactive: 5.56%. For `COC(=O)c1c(NC(=O)CN(C)CC(=O)Nc2ccc(C)cc2)sc2c1CCC(C)C2` (stereo not drawn), the activity change, negative = inhibition was inactive: 0.538%. With `O=C1CCCCCC1C1(O)C(=O)Nc2ccc(Br)cc21` (stereo not drawn) the activity change, negative = inhibition was inactive: 2.8%. `COC(=O)c1ccccc1NC(=O)c1ccc(NC(=O)C2CCCO2)cc1` (stereo not drawn) was tested, and the activity change, negative = inhibition was inactive: 2.93%. In the case of `COCC(=O)N1CCC(Oc2ccc(C(=O)NCc3cnc(C)cn3)cc2)CC1`, the activity change, negative = inhibition is reported as inactive: -0.601%. `Cc1ccccc1-n1nc2c(c1NC(=O)c1cc3ccccc3oc1=O)CS(=O)C2` (stereo not drawn) was tested, and the activity change, negative = inhibition was inactive: 5.68%. `CCC(C)C(NC(=O)C(C)NC(=O)CNC(=O)CNC(=O)OCc1ccccc1)C(=O)OC` (stereo not drawn) (Cbz-GGAI-OMe; configuration not given here) was tested, and the activity change, negative = inhibition was inactive: -0.582%. In the case of `O=C(OCC(=O)N1CCOCC1)c1ccc(O)cc1`, the activity change, negative = inhibition is reported as inactive: 3.76%. With `O=C(c1ccc(S(=O)(=O)NCC2CCCO2)cc1)N1CCN(c2ccccc2)CC1` (stereo not drawn) the activity change, negative = inhibition was inactive: 0.625%. With `Cc1ccc(C)c(-n2cc(CNCCc3cnccn3)c(-c3ccccc3)n2)c1` the activity change, negative = inhibition was inactive: -0.978%. In the case of `CC1CCN(C(=O)COc2ncnc3ccccc23)CC1`, the activity change, negative = inhibition is reported as inactive: -1.92%. In the case of `COCCCNS(=O)(=O)c1ccc2c(c1)CCN2C(C)=O`, the activity change, negative = inhibition is reported as inactive: -3.66%. For `Cc1ccc(S(=O)(=O)N2CCCCC2)cc1NC(=O)COC(=O)C1(C)CC1(Cl)Cl` (stereo not drawn), the activity change, negative = inhibition was inactive: -0.101%. `COc1cccc(/C=C2\SC(=S)N(CCCC(=O)N3CCCCC3CCO)C2=O)c1` (stereo not drawn) was tested, and the activity change, negative = inhibition was inactive: 1.87%. For `Cc1nc(Nc2ccc(C(=O)O)cc2)sc1-c1ccccc1`, the activity change, negative = inhibition was inactive: -4.64%. With `Cc1ccc(CNS(=O)(=O)c2ccc(C(F)(F)F)cc2)n1C` the activity change, negative = inhibition was inactive: -2.84%. `CN(c1ccccc1)S(=O)(=O)c1cccc(C(=O)NCCc2c[nH]c3ccccc23)c1` was tested, and the activity change, negative = inhibition was inactive: -5.59%. `CCN(CC)c1ccc(NS(=O)(=O)c2ccc(OC)cc2)cc1` was tested, and the activity change, negative = inhibition was inactive: -2.25%. `Cc1ccc(N2CCN(CCCN3C(=O)C4CCCN4C3=O)CC2)cc1` (stereo not drawn) was tested, and the activity change, negative = inhibition was inactive: 3.42%. `Cc1cccc(OCC(=O)N2CCCc3ccccc32)c1` was tested, and the activity change, negative = inhibition was inactive: 0.078%. `COC(=O)c1ccc(CN2C(=O)c3ccccc3S2(=O)=O)cc1` was tested, and the activity change, negative = inhibition was inactive: -0.049%. For `O=S(=O)(c1cc(C(F)(F)F)ccc1Cl)N1CCN(c2ncnc3ccccc23)CC1`, the activity change, negative = inhibition was inactive: 0.682%. With `O=C(CN1CCC(n2nnc3cc(C(F)(F)F)ccc32)CC1)Nc1ccc2c(c1)OCCO2` the activity change, negative = inhibition was inactive: -1.87%. `CCc1ccc(NC(=O)c2ccc(NC(=O)C3CCCO3)cc2)cc1` (stereo not drawn) was tested, and the activity change, negative = inhibition was inactive: -0.654%. For `Cc1ccccc1Nc1nc(N)nc(CN2C(=O)NC3(CCCCC3C)C2=O)n1` (stereo not drawn), the activity change, negative = inhibition was inactive: -1.03%. With `COC(=O)c1cc(S(=O)(=O)N2CCCC(C)C2)c[nH]1` (stereo not drawn) the activity change, negative = inhibition was inactive: 1.02%. `COc1ccc(C2N(c3cc(C)on3)C(=O)C3CCCN32)cc1OC` (stereo not drawn) was tested, and the activity change, negative = inhibition was inactive: -3.68%. For `COc1ccccc1C(=O)NCCC(=O)NCC1CCCCC1`, the activity change, negative = inhibition was inactive: -0.027%. With `O=C(NC(=S)Nc1ccc(S(=O)(=O)Nc2nccs2)cc1)c1ccc(F)cc1` the activity change, negative = inhibition was inactive: 1.35%. For `O=C(c1cccc(Cl)c1)N1CCC(C(=O)N2CCN(Cc3ccccc3)CC2)CC1`, the activity change, negative = inhibition was inactive: -2.79%. In the case of `CCCCC(NS(=O)(=O)c1ccc(OC)cc1)C(=O)O` (stereo not drawn), the activity change, negative = inhibition is reported as inactive: -1.29%. With `CCOC(=O)C1CCN(c2nc(-c3ccc(C)cc3)nc3ccccc23)CC1` the activity change, negative = inhibition was inactive: -0.524%. In the case of `CC(=O)Nc1ccc(NC(=O)COC(=O)COc2ccc3ccccc3c2)cc1`, the activity change, negative = inhibition is reported as inactive: -1.38%. With `CCC(C)[C@H](NC(=O)N1CCC(C)CC1)C(=O)OC` (stereo partly drawn) the activity change, negative = inhibition was inactive: -0.798%. In the case of `Cc1ccc2nc(NC(=O)COC(=O)c3ccncc3)sc2c1`, the activity change, negative = inhibition is reported as inactive: 2.09%. For `Cc1noc(C)c1COc1ccc(CC(=O)NCCc2ccccc2)cc1`, the activity change, negative = inhibition was inactive: 0.712%. For `C=CCOc1ccc(Br)cc1CNCCO`, the activity change, negative = inhibition was inactive: -0.281%. `C=CCc1ccc(OCCn2nnc3ccccc32)c(OC)c1` was tested, and the activity change, negative = inhibition was inactive: -0.216%. In the case of `CC(C)CNC(=O)NC(=O)COC(=O)COc1ccc(Cl)cc1Cl`, the activity change, negative = inhibition is reported as inactive: 1.9%. `Cn1c(CCN2CCCCCC2)nc2cc(NC(=O)Nc3ccccc3)ccc21` was tested, and the activity change, negative = inhibition was inactive: 0.978%. In the case of `COc1ccc(S(=O)(=O)N2CCC(C(=O)N[C@H](C(=O)N3CCCC3)C(C)C)CC2)cc1`, the activity change, negative = inhibition is reported as inactive: 1.52%. In the case of `CN(C)c1ccc(C(=S)N2CCN(c3ccccc3)CC2)cc1`, the activity change, negative = inhibition is reported as inactive: 4.38%. For `O=C(NCc1ccc2c(c1)OCO2)c1ccc(Cl)nc1`, the activity change, negative = inhibition was inactive: -1.21%.
